Measurements from “University of Dundee, Small-Polar-MMV Screening Library” (2021), ChEMBL document CHEMBL3988442.

Mtb growth Cornell: 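Whole-cell assay for inhibitors of Mycobacterium tuberculosis growth, labelled Cornell in the record; the read-out is not stated. The concentration is filed as 10 mM, unlikely as a test dose, so the dose is not known. The record gives no direction; compounds strong in two other growth screens of this library score well above the rest, so higher reads as stronger inhibition. Of about 53,000 compounds tested this way, about 900 (1.7%) reached 50% or more in at least one test.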
Mtb heat-shock: 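Assay on Mycobacterium tuberculosis, filed only as a heat shock assay from Cornell; the read-out is not stated. The concentration is filed as 10 mM, unlikely as a test dose, so the dose is not known. The record gives no direction; compounds that gave an IC50 in retests scored well above the rest, so higher reads as stronger inhibition. Size under these conditions: about 69,000 compounds, about 930 of them at 50% or above in at least one test.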

Results are given as percent effect. How 0% and 100% were set is not recorded. Most values in the screen are low, and negative values occur. This is an unselected part of the compounds tested. A dash means the value is not listed here; it may have been measured.

structure | Mtb growth Cornell | Mtb heat-shock
CCOc1ccccc1Oc1ccc(CN)cn1 | 23.22 | -0.212
CC(C)N(Cc1ccc(C#N)cc1)C(=O)Nc1ccccn1 | - | -11.27
O=C(O)c1cc(-c2ccncc2)cc(S(=O)(=O)N2CCCCCC2)c1 | 3.328 | 7.811
Cc1nccnc1N1CC[C@@H](NC(=O)c2cnccn2)[C@H](O)C1 | - | 2.802
c1ccc2ncc(CC3CCNCC3)cc2c1 | -24.05 | -5.608
Cc1ccc(CN2CCC(O)(Cn3nc(-c4cccs4)oc3=O)CC2)o1.O=C(O)CC(O)(CC(=O)O)C(=O)O | 16.17 | 5.66
COc1ccccc1OCCC(=O)N1CCCC1Cn1cc(C)cn1 (centres undefined) | - | -4.119
Cc1cc(CNc2ccccc2N2CCCCC2)no1 | -22.44 | -6.244
COc1cc(CNCc2ccc(NC(=O)NC(C)C)cc2)cc(OC)c1 | 12.3 | 24.56
Cc1ncc(-c2ccnc(N3CCCCC3)n2)c(=O)[nH]1 | - | 1.834
COc1ccccc1CNC(=O)CNCCn1cc(C)cn1 | -1.934 | 4.427
CN(Cc1cccc(C#N)c1)S(=O)(=O)N1CCOCC1 | -12.88 | 6.114
CCOc1ccnc(N2CCN(C(=O)c3cccnc3)CC2)n1 | -18.66 | 11.49
CC(C)c1noc(CS(=O)(=O)Cc2nc(C(C)C)no2)n1 | 17.28 | -44.12
O=C(NCc1ccccc1Cn1cncn1)C1CC1 | 8.565 | -3.918
Cn1cc(NC(=O)CNC(=O)N2CCN(c3ccc(F)cc3)CC2)cn1 | 5.13 | -18.96
COc1ccc(C)cc1CNC(=O)C1=NN(c2ccccc2)C(=O)CN1 | - | 30.82
O=C(O)C(F)(F)F.O=C(O)C(F)(F)F.c1csc(CN2CCC3(CCCN3CC3CC3)CC2)n1 | 19.75 | -16.36
CCn1ccnc1C1CCN(c2ncnc3ccsc23)CC1 | -2.148 | 2.157
CC(C)c1ocnc1C(=O)N1CC(=O)Nc2cccnc21 | - | 8.462
CC(C)(C)c1ncc(C(=O)NCCNC(=O)Cc2ccccc2)s1 | -2.88 | 4.191
CC(C)CC1SCC(=O)Nc2c1cnn2-c1ccc(F)cc1 (centres undefined) | - | -5.704
CS(=O)(=O)NCC(=O)NC1CCCN(c2ccccn2)C1 (centres undefined) | 1.275 | -1.607
O=C(c1ccco1)N1CCOCC2(C1)CN(c1ccoc1)C(=O)CO2 (centres undefined) | 14.34 | -6.777
COCCn1cc(CC(=O)Nc2nc3c(s2)CCC3)c2ccccc21 | 37.43 | -2.152
O=C(O)C(F)(F)F.O=C(O)C(F)(F)F.c1cnc(N2CCC3(CCN(CC4CC4)CC3)CC2)nc1 | -10.11 | -7.823
C1CCC(N2CCCN(c3nc(C4CC4)no3)CC2)C1 | 11.02 | -7.498
Cc1cc(N2CCCC(OC(=O)CCN3CCCC3=O)C2)nc(C)n1 (centres undefined) | -25.53 | -11.68
Cc1ccc(NC2CCN(C(=O)Cc3c(C)noc3C)CC2)nn1 | - | 4.244
CC(=O)N1CCCN(S(=O)(=O)c2cc3ccccc3o2)CC1 | 27.58 | -6.213
CCCN1CCCC2(CCN(c3nccc(OC)n3)C2)C1=O (centres undefined) | 19.62 | 4.708
O=C(O)C(F)(F)F.[H][C@@]12CCN(Cc3scnc3C)C[C@]1(C(=O)N1CCOCC1)CCO2 | 14.68 | -1.37
[H][C@]12CC[C@]([H])(CN(S(=O)(=O)c3cn(C)cn3)C1)N(Cc1cscn1)C2=O | -16.21 | 8.399
COc1ccc(C2(NC(=O)CCn3cncn3)CCCCC2)cc1 | -5.206 | -2.126
CCn1nc(CC(C)C)cc1C(=O)NCC(F)(F)F | -4.012 | 3.059
Cc1cc(S(=O)(=O)NC(=O)CCc2cncc(F)c2)c(C)s1 | - | -33.01
CC(C)(C)OC(=O)N1CCN(S(=O)(=O)CCCC#N)C2(CCCCC2)C1 | 25.19 | -8.27
CC(=O)NCCNc1cc(C)nc2cc(C)nn12 | 14.51 | 10.26
O=C(NCc1ccnc(OCC2CC2)c1)C1Cc2ccccc2O1 (centres undefined) | 11.36 | -1.68
CN1CCCC(c2n[nH]c3ncccc23)C1 (centres undefined) | 7.128 | -10.45
COCCn1c2c(ccc1=O)CC(N)CC2 (centres undefined) | - | -14.68
COc1ccc(C2CCCN2Cc2nc3c(cnn3C)c(=O)[nH]2)cc1 (centres undefined) | - | 13.03
CC(CNC(=O)c1ccc(F)cc1I)N1CCCC1 (centres undefined) | - | -0.1529
CCOC(C)c1noc(CN(C)C(=O)c2cc3ccccn3c2)n1 (centres undefined) | -71.57 | 14
NC(=O)CCOc1ccc(NC(=O)c2ccccc2OC(F)F)cc1 | - | -22.95
CCN1CCC2(CC1)CC(NC(=O)NC)c1cc(C)ccc12.O=C(O)C(F)(F)F (centres undefined) | 24.32 | 8.085
Cc1nn(C)c(Cl)c1C1CCCN1C(=O)c1ccc[nH]1 (centres undefined) | -63.47 | -17.49
CNC(=O)c1cnc(C)nc1CCNC(=O)CCc1ccccc1 | -24.93 | -23.11
O=C(c1cc(F)ccc1F)C1CCN(C(=O)c2ccco2)CC1 | - | -2.265
CC(C)C(=O)N1CCC(C)(c2cc(O)[nH]n2)CC1 | -13.18 | 1.922
Cn1cc(C(=O)Nc2cccc(Oc3ccncc3)c2)ccc1=O | - | -20.63
COCCN1CCCC(c2nccnc2-c2cccc(Cl)c2)C1 (centres undefined) | -10.99 | -9.347
CCCc1nn(Cc2ccc(Br)s2)c(=O)o1 | 24.43 | 31
CC(C)Cc1noc(CNc2cc3c(cc2Cl)OCCCO3)n1 | - | -0.6154
CCCc1cc(C(=O)N2CCOC(c3nc(-c4cccs4)no3)C2)no1 (centres undefined) | - | -18.64